Measured values published in patent publication US8759300.
These are yes or no findings as the source states them, for the method shown. Some results given as binding are weak or reduced against the parent protein; the word gives no strength.

The chains behind the UniProt entries cited, without tags or fusion partners. Where a name states a change or a piece, a line headed by the entry shows the natural chain unless it says otherwise. A line that says so, or that is headed by a name, gives the form on record, which may keep a tag or linker.
UniProt P09038: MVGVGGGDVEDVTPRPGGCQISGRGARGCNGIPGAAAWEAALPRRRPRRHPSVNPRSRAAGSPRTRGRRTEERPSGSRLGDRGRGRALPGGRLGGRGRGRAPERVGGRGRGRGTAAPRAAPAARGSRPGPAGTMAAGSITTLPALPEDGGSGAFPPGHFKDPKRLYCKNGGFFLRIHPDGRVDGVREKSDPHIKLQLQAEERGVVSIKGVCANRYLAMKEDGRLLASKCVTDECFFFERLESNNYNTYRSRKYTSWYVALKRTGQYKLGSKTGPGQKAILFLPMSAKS
FNIII1 (P02751, form named): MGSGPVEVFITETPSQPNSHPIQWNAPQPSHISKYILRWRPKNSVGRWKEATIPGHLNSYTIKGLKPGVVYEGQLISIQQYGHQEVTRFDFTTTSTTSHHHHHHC
FNIII1-7 (P02751, form named): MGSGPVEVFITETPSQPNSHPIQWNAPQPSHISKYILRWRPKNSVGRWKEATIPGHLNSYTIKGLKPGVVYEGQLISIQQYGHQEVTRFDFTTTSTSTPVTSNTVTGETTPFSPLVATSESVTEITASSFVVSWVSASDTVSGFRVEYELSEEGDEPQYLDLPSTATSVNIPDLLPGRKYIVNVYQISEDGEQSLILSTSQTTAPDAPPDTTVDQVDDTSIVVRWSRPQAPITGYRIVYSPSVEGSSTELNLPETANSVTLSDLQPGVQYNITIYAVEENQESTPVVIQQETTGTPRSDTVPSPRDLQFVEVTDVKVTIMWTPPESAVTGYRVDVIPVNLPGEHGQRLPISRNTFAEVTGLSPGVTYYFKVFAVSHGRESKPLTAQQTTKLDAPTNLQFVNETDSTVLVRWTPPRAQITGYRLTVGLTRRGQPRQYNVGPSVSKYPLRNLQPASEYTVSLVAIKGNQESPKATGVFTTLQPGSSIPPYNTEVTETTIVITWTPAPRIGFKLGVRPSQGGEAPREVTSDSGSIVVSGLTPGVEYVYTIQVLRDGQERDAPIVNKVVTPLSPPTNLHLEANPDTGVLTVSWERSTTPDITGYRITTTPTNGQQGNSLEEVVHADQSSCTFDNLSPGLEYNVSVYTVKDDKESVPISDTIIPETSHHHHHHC

Target: basic fibroblast growth factor (bFGF, FGF-2) (human) (UniProt P09038)
Assay: method not restated in the sentence

Row | Substance | binding
1 | FNIII1 (from UniProt P02751 610-702) | binds
2 | FNIII1-7 (from UniProt P02751 610-1266) | binds
